# Measured values taken from paper PMC9739877, “Discovery and Mechanistic Investigation of Piperazinone Phenylalanine Derivatives with Terminal Indole or Benzene Ring as Novel HIV-1 Capsid Modulators” (Molecules, 2022).
# Settings: human, microsomes, 1 h, 1 μM
smiles,measurement,value
"CCCNCC(O)COc1ccccc1C(=O)CCc1ccccc1 (centres unmarked) [Propafenone, propafenone]",Remaining (NCF = 60 min),93.6%
same,Remaining (T = 60 min),0.0%
